Results taken from the supplement of paper PMC6411743.
± gives the standard deviation of the averaged measurements. The entries are a selection whose mix differs from that of the whole data set. Most values lie at the level of the controls, where differences are scatter.

Sequences of proteins named here, by UniProt entry; tags and fusion partners are left off. A change or cut given only in a name is not applied to a line headed by its entry.
UniProt Q9NZM4: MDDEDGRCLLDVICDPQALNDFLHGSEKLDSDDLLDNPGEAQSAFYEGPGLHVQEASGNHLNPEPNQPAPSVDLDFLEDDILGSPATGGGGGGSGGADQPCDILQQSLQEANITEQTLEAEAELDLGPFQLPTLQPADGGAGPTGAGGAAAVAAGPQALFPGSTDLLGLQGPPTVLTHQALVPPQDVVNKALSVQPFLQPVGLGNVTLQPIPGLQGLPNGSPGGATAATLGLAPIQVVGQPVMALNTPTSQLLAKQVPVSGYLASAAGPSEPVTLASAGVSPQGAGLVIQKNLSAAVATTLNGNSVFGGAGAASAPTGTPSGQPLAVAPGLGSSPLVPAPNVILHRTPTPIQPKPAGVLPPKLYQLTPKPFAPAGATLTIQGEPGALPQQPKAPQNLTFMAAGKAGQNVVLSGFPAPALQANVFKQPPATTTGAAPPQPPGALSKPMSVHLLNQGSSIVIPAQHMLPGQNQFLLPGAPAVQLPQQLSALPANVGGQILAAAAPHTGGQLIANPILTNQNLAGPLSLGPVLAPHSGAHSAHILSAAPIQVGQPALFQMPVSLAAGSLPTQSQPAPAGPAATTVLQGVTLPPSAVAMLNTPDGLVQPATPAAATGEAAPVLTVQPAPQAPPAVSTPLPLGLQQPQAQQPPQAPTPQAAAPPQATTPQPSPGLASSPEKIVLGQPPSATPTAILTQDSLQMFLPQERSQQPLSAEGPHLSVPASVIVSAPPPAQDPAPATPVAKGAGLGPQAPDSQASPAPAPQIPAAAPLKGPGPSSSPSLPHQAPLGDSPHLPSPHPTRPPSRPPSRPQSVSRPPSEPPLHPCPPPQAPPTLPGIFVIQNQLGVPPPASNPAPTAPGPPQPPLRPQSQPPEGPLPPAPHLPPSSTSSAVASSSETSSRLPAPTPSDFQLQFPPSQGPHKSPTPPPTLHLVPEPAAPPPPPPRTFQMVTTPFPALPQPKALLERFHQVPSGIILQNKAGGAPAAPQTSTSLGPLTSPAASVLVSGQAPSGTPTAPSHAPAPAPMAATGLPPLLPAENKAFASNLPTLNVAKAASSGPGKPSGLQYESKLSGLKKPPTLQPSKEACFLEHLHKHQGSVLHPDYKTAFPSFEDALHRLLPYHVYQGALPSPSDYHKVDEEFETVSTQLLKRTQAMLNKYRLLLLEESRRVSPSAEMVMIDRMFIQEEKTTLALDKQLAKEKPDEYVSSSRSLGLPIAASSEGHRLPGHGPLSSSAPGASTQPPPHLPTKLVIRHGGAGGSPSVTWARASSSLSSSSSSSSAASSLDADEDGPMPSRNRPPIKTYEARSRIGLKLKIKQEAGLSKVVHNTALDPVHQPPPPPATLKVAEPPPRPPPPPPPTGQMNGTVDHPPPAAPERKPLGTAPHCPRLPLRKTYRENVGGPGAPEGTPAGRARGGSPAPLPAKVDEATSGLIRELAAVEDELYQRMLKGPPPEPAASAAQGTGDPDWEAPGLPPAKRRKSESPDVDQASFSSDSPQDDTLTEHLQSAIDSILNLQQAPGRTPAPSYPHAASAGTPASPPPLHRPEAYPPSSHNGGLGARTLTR
UniProt Q5HYA8: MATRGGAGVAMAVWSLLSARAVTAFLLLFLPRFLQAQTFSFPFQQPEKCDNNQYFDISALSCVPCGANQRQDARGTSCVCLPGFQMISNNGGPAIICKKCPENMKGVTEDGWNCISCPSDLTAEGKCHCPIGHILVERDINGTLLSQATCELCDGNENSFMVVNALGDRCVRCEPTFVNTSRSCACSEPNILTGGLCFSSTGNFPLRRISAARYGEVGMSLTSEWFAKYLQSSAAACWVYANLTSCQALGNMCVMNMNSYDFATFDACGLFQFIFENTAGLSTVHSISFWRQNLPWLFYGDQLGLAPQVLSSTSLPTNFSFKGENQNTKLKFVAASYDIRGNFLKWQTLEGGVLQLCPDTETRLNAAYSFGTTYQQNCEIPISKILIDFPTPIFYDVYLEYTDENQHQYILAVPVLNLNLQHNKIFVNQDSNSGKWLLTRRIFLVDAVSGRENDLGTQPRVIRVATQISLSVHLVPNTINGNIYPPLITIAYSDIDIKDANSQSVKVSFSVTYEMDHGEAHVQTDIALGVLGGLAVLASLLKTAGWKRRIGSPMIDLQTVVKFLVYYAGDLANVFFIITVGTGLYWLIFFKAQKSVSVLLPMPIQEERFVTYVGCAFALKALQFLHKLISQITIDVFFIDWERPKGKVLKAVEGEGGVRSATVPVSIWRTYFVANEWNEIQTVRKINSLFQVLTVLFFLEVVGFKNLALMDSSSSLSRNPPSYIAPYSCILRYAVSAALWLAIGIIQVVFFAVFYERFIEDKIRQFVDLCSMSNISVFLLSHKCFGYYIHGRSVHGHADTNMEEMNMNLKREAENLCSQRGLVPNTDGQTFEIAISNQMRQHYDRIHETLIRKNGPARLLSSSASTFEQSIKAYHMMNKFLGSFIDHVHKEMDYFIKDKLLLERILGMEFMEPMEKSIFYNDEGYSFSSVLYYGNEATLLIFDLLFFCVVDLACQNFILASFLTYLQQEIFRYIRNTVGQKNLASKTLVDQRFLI
UniProt O14772: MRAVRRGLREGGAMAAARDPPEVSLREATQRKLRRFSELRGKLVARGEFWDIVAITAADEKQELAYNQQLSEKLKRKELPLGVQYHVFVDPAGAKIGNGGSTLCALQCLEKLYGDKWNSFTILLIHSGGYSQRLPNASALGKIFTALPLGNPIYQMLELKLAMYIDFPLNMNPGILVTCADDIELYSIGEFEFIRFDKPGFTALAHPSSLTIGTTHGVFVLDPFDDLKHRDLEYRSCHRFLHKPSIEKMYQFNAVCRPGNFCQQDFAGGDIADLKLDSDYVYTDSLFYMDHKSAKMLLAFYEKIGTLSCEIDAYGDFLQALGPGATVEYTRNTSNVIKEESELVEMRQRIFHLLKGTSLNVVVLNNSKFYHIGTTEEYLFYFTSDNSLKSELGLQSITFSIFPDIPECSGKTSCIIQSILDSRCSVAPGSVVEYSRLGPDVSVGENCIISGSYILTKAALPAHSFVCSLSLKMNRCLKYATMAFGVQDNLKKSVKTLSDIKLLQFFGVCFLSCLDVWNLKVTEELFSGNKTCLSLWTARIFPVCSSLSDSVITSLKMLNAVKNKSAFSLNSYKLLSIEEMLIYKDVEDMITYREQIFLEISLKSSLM
UniProt P51956: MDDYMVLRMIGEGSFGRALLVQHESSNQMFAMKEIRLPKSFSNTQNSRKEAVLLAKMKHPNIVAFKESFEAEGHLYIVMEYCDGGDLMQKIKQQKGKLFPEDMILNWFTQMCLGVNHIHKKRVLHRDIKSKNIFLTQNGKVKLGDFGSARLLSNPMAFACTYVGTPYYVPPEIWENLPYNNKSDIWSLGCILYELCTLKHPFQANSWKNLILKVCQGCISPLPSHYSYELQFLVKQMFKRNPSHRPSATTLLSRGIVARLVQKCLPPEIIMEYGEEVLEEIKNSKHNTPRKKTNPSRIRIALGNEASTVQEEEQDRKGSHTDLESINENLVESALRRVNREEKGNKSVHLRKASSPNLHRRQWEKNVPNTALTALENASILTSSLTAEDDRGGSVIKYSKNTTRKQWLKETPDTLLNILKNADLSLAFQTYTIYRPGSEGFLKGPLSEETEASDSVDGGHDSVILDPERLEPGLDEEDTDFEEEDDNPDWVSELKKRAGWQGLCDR
UniProt Q96C36: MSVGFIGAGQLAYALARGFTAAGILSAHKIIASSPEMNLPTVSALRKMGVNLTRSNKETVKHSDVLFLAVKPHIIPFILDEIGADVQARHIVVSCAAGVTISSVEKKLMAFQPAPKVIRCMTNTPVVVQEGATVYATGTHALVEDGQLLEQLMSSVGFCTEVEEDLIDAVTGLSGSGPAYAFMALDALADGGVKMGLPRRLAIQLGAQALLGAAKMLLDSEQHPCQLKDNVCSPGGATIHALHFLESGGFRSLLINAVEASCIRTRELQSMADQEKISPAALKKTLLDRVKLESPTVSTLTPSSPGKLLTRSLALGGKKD
UniProt Q9Y4X4: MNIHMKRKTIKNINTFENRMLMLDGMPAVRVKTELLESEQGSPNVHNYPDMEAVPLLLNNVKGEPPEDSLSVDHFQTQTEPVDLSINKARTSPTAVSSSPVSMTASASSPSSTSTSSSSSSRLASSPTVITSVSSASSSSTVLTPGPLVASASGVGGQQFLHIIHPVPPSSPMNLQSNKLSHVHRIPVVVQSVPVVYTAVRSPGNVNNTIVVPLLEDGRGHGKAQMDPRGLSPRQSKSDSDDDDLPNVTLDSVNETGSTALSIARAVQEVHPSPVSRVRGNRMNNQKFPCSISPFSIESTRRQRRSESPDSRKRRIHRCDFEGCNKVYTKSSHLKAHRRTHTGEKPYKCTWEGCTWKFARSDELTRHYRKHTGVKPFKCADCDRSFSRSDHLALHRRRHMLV
UniProt Q8N6M0: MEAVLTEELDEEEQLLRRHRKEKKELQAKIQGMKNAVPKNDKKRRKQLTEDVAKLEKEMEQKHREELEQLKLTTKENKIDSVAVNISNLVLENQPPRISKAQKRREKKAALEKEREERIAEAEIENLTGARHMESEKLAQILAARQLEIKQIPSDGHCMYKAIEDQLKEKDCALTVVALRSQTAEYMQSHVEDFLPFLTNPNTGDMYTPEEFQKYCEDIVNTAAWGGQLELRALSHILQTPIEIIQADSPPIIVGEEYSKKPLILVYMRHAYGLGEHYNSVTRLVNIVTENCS
UniProt Q9BUJ2: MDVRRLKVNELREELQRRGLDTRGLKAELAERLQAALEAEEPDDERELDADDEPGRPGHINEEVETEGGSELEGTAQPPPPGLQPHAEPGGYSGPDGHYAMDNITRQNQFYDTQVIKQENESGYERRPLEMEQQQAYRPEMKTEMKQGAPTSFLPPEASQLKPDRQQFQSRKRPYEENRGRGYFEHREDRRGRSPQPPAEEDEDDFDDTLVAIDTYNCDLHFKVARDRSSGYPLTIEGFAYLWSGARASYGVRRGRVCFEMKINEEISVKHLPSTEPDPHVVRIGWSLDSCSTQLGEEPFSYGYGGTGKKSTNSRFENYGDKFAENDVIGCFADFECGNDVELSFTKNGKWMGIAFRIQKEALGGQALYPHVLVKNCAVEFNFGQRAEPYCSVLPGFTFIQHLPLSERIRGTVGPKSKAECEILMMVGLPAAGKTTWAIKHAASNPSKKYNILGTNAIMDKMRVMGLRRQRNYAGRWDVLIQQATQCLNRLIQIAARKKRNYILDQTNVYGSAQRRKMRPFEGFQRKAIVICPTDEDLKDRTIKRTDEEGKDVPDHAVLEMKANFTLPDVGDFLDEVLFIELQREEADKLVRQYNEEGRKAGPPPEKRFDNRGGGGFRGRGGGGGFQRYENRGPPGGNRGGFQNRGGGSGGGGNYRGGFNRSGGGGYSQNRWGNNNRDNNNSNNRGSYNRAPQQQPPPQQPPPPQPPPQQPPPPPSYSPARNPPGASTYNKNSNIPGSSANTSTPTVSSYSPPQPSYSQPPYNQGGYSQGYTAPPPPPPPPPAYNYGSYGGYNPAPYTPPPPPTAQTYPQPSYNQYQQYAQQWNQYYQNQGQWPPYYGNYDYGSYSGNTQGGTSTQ
UniProt Q9UL33, whole entry: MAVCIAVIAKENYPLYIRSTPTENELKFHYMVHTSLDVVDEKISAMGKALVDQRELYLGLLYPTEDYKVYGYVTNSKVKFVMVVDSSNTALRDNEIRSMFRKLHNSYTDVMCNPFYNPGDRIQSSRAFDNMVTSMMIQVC
UniProt Q6UXD5: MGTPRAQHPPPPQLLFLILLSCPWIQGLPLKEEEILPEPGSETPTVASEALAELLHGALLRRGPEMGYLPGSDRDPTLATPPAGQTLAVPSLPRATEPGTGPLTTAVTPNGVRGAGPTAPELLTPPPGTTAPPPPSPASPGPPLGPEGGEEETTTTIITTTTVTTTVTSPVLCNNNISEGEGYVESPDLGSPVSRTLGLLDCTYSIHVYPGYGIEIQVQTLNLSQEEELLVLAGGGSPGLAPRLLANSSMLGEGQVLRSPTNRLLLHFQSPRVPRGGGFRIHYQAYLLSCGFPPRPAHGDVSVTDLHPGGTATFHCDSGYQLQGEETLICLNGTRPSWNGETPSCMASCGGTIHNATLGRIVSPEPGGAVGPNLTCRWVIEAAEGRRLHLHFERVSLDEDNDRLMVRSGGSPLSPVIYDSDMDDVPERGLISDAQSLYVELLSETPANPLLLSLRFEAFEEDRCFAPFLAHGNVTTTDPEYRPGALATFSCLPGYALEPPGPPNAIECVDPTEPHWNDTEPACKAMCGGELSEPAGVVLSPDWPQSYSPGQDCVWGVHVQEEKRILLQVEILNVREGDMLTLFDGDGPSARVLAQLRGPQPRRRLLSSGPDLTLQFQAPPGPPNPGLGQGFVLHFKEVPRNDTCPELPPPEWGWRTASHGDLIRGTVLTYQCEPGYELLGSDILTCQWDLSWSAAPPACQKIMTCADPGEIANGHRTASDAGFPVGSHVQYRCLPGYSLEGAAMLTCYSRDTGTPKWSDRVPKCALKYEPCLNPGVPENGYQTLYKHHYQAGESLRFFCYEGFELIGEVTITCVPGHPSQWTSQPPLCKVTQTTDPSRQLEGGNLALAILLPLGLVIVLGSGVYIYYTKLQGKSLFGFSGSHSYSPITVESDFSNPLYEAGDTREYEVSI

Compound: Nc1ncnc2c1ncn2[C@@H]1O[C@H](COP(=O)(O)OP(=O)(O)OP(=O)(O)O)[C@@H](O)[C@H]1O [adenosine triphosphate]
Test: NP40-soluble protein abundance relative to vehicle (solubility fold change) (ratio); higher = more soluble protein in presence of ATP
Summary of the method: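 Values are fold changes against the detergent-processed vehicle, based on vsn-normalised intensities. Jurkat crude lysate was treated at eight concentrations from 0.1 to 10 mM (10 min at room temperature, then 3 min at 37 °C), solubilised with 0.8% NP40 and benzonase, ultracentrifuged and analysed by TMT-labelled LC-MS/MS over three independent experiments.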

Target	NP40-soluble protein abundance (concentration: 0.1mM)	NP40-soluble protein abundance (concentration: 0.5mM)
A0A087WZ97|A0A087WZK6|A0A087X2C2|Q5T7M9 (UniProt Q5T7M9)	0.983 ± 0.064	0.938 ± 0.062
A0A0A0MTG1|Q5ST30 and related entries (UniProt Q5ST30)	1.02 ± 0.022	1.03 ± 0.033
A0A0A0MRV0|Q9P2E9 (UniProt Q9P2E9)	0.947 ± 0.043	0.95 ± 0.038
A0A0A0MR87|E9PSF2 and related entries (UniProt Q15468)	0.847 ± 0.098	0.79 ± 0.1
A0A0C4DFY0|Q14242 and related entries (UniProt Q14242)	0.767 ± 0.15	0.785 ± 0.066
A0A0A0MTL5|D6R9R7 and related entries (UniProt Q13309)	1.04 ± 0.056	1.02 ± 0.08
A0A0A0MQR1|Q9Y4K4 (UniProt Q9Y4K4)	1.04 ± 0.021	1.01 ± 0.036
A0A087WUL7|Q96F24 (UniProt Q96F24)	0.988 ± 0.031	1.02 ± 0.04
A0A0B4J1W3|Q9BXJ9 (UniProt Q9BXJ9)	1.03 ± 0.056	1.06 ± 0.038
A0A0A0MS70|A0A0A0MST0|H0Y4G9 and related entries (UniProt Q99836)	1.02 ± 0.041	0.983 ± 0.089
A0A0A0MQS2|F5H0Q6 (UniProt Q8N2M8)	0.997 ± 0.12	1.08 ± 0.15
A0A087WTV7|D6R9U7 and related entries (UniProt O15318)	0.901 ± 0.031	0.967 ± 0.07
A0A087WUT6|O60841 (UniProt O60841)	0.987 ± 0.03	1.01 ± 0.051
A0A0A0MR66		1.09 ± 0.081
A0A087WXI0 (UniProt Q7Z6P3)	0.978 ± 0.03	0.971 ± 0.05
A0A0B4J2A4|P42765 (UniProt P42765)	1.01 ± 0.043	1.04 ± 0.052
A0A087WVS8|Q70IA6 and related entries (UniProt Q70IA6)	1.05 ± 0.029	1.04 ± 0.068
A0A0A0MS18|C9JYJ0 and related entries (UniProt O15315)	1.094 ± 0.0042	1.05 ± 0.12
A0A087WXF8|A0A087WXU5|A0A087WYF0|A0A0D9SEW3|Q9NP64 and related entries (UniProt Q9NP64)	0.86 ± 0.11	0.905 ± 0.092
A0A0A0MQS0|A8MW92 and related entries (UniProt A8MW92)	0.95 ± 0.037	1.02 ± 0.029
A0A087WWH3|Q9NZM4 and related entries (UniProt Q9NZM4)	0.989 ± 0.15	1.02 ± 0.14
A0A0C4DFN8|P22570 and related entries (UniProt P22570)	1.06 ± 0.064	1.07 ± 0.059

Target	NP40-soluble protein abundance (concentration: 0.1mM)	NP40-soluble protein abundance (concentration: 0.5mM)
A0A087WXI1|Q6NVY1 (UniProt Q6NVY1)	1.05 ± 0.058	1.05 ± 0.09
A0A087X0M0|Q7Z5L2 and related entries (UniProt Q7Z5L2)	1.02 ± 0.074	0.978 ± 0.069
A0A0C4DFP8|Q5HYA8 (UniProt Q5HYA8)	0.928 ± 0.14	0.997 ± 0.037
A0A087X1G7|A0A0B4J1S4|O60613 (UniProt O60613)	0.945 ± 0.041	0.919 ± 0.033
A0A087WWK8|Q6DN90 (UniProt Q6DN90)	0.999 ± 0.15	1.06 ± 0.18
A0A087WWU1|Q96Q45 and related entries (UniProt Q96Q45)	1 ± 0.073	1.01 ± 0.016
A0A087X211|Q8TCG1 (UniProt Q8TCG1)	1.02 ± 0.058	0.985 ± 0.036
A0A075B716|H0YN88 and related entries (UniProt P08708)	0.908 ± 0.12	0.863 ± 0.087
A0A0A0MRP2|O14772 and related entries (UniProt O14772)	1.14 ± 0.2	1.11 ± 0.23
A0A0A0MSL4|A0A0G2JHL1|A0A0G2JJ73|A0A0G2JK30|A0A0G2JK37|A0A0G2JKD0|F6QYZ9 and related entries (UniProt O95872)	1.75 ± 1.1	0.955 ± 0.049
A0A087WY58|P51956 and related entries (UniProt P51956)	0.998 ± 0.028	0.9832 ± 0.0068
A0A0A0MRJ6|C9J0F2 and related entries (UniProt P22061)	0.988 ± 0.04	0.97 ± 0.028
A0A0A0MT23 (UniProt P27448)	1.07 ± 0.038	1.21 ± 0.016
A0A087WTV6|Q96C36 (UniProt Q96C36)	0.961 ± 0.019	0.967 ± 0.034
A0A087WVN1|Q5JPI9 (UniProt Q5JPI9)	1.05 ± 0.0057	1.02 ± 0.055
A0A0A0MRU8|Q9Y4X4 (UniProt Q9Y4X4)	0.986 ± 0.15	0.965 ± 0.058
A0A0D9SF54|A0A0D9SGF6|Q13813 and related entries (UniProt Q13813)	0.853 ± 0.035	0.853 ± 0.065
A0A087X0W9|Q8N6M0 (UniProt Q8N6M0)	0.974 ± 0.015	0.972 ± 0.054
A0A0A6YYL4|P57737-3|P57737-4 (UniProt P57737)	1 ± 0.022	0.989 ± 0.016
A0A0A0MTB0|A0A0J9YYI4|D6RHG7 and related entries (UniProt Q86VE9)	0.994 ± 0.067	0.953 ± 0.11
A0A087WY85|P61077 and related entries (UniProt P61077)	0.957 ± 0.041	0.923 ± 0.046
A0A087WWM4|F8WAN9 and related entries (UniProt Q9P2T1)	1.01 ± 0.07	1.01 ± 0.052

21 consecutive entries out of the list so far:
Target	NP40-soluble protein abundance (concentration: 0.1mM)	NP40-soluble protein abundance (concentration: 0.5mM)
A0A087WWH3|Q9NZM4 and related entries (UniProt Q9NZM4)	0.989 ± 0.15	1.02 ± 0.14
A0A0C4DFN8|P22570 and related entries (UniProt P22570)	1.06 ± 0.064	1.07 ± 0.059
A0A087WXI1|Q6NVY1 (UniProt Q6NVY1)	1.05 ± 0.058	1.05 ± 0.09
A0A087X0M0|Q7Z5L2 and related entries (UniProt Q7Z5L2)	1.02 ± 0.074	0.978 ± 0.069
A0A0C4DFP8|Q5HYA8 (UniProt Q5HYA8)	0.928 ± 0.14	0.997 ± 0.037
A0A087X1G7|A0A0B4J1S4|O60613 (UniProt O60613)	0.945 ± 0.041	0.919 ± 0.033
A0A087WWK8|Q6DN90 (UniProt Q6DN90)	0.999 ± 0.15	1.06 ± 0.18
A0A087WWU1|Q96Q45 and related entries (UniProt Q96Q45)	1 ± 0.073	1.01 ± 0.016
A0A087X211|Q8TCG1 (UniProt Q8TCG1)	1.02 ± 0.058	0.985 ± 0.036
A0A075B716|H0YN88 and related entries (UniProt P08708)	0.908 ± 0.12	0.863 ± 0.087
A0A0A0MRP2|O14772 and related entries (UniProt O14772)	1.14 ± 0.2	1.11 ± 0.23
A0A0A0MSL4|A0A0G2JHL1|A0A0G2JJ73|A0A0G2JK30|A0A0G2JK37|A0A0G2JKD0|F6QYZ9 and related entries (UniProt O95872)	1.75 ± 1.1	0.955 ± 0.049
A0A087WY58|P51956 and related entries (UniProt P51956)	0.998 ± 0.028	0.9832 ± 0.0068
A0A0A0MRJ6|C9J0F2 and related entries (UniProt P22061)	0.988 ± 0.04	0.97 ± 0.028
A0A0A0MT23 (UniProt P27448)	1.07 ± 0.038	1.21 ± 0.016
A0A087WTV6|Q96C36 (UniProt Q96C36)	0.961 ± 0.019	0.967 ± 0.034
A0A087WVN1|Q5JPI9 (UniProt Q5JPI9)	1.05 ± 0.0057	1.02 ± 0.055
A0A0A0MRU8|Q9Y4X4 (UniProt Q9Y4X4)	0.986 ± 0.15	0.965 ± 0.058
A0A0D9SF54|A0A0D9SGF6|Q13813 and related entries (UniProt Q13813)	0.853 ± 0.035	0.853 ± 0.065
A0A087X0W9|Q8N6M0 (UniProt Q8N6M0)	0.974 ± 0.015	0.972 ± 0.054
A0A0A6YYL4|P57737-3|P57737-4 (UniProt P57737)	1 ± 0.022	0.989 ± 0.016

The list goes on:

Target	NP40-soluble protein abundance (concentration: 0.1mM)	NP40-soluble protein abundance (concentration: 0.5mM)
A0A0A0MSG2|J3KNW4 and related entries (UniProt Q14192)	1.07 ± 0.056	1.07 ± 0.04
A0A087WXN9|Q765P7 (UniProt Q765P7)	1.07 ± 0.098	1.01 ± 0.043
A0A087WVU5|O00512 (UniProt O00512)	0.942 ± 0.18	1.03 ± 0.082
A0A0A0MTN0|Q13617 and related entries (UniProt Q13617)	1.05 ± 0.09	1.02 ± 0.036
A0A0C4DGT5|Q5RL73 and related entries (UniProt Q5RL73)	0.942 ± 0.13	0.944 ± 0.059
A0A087WXR2|F5H1Z6 and related entries (UniProt Q9Y365)	1.06 ± 0.086	1.03 ± 0.055
A0A0D9SG71|P49459 (UniProt P49459)	1.08 ± 0.062	1.05 ± 0.062
A0A087X0R6|Q9UMY4 and related entries (UniProt Q9UMY4)	0.962 ± 0.061	0.954 ± 0.063
A0A087WUW9|Q9NXU5 (UniProt Q9NXU5)	1.02 ± 0.013	1.02 ± 0.077
A0A0A0MQT4|Q5QP82 and related entries (UniProt Q5QP82)	1 ± 0.051	1.03 ± 0.11
A0A0A0MRU0|A0A0C4DH75|A0A0D9SFF8|B4DZ84 and related entries (UniProt Q14168)	1.05 ± 0.026	1.05 ± 0.045
A0A087WT59|A0A087WV45|P02766 (UniProt P02766)	0.948 ± 0.11	0.953 ± 0.11
A0A0A0MRA5|Q9BUJ2-2|Q9BUJ2-4|Q9BUJ2 (UniProt Q9BUJ2)	1.02 ± 0.026	1.05 ± 0.048
A0A087WW39|P55198 (UniProt P55198)	1.03 ± 0.072	1.07 ± 0.023
A0A087WU53|Q9H0U3 (UniProt Q9H0U3)	0.984 ± 0.026	0.993 ± 0.024
A0A0D9SEI0|Q9P0P8 (UniProt Q9P0P8)	0.977 ± 0.074	0.91 ± 0.14
A0A0B4J294|H3BP13 and related entries (UniProt Q9UL33)	0.9608 ± 0.0047	0.98 ± 0.022
A0A087X020|Q9Y3A5 (UniProt Q9Y3A5)	1.04 ± 0.069	1.06 ± 0.054
A0A096LP75|C4AMC7 and related entries (UniProt Q6VEQ5+C4AMC7)	0.932 ± 0.034	0.8573 ± 0.0038
A0A0A0MRP6|B7ZLQ5 and related entries (UniProt P28370)	1.1 ± 0.03	1.09 ± 0.012
A0A087X243|P09211 (UniProt P09211)	1.03 ± 0.059	1.04 ± 0.048
A0A087WYL5|Q6UXD5-3|Q6UXD5-5|Q6UXD5-6 (UniProt Q6UXD5)	0.953 ± 0.13	0.915 ± 0.064

Target	NP40-soluble protein abundance (concentration: 0.1mM)	NP40-soluble protein abundance (concentration: 0.5mM)
A0A0A0MRW1|Q5T593 and related entries (UniProt Q8IW50)	0.803 ± 0.16	0.878 ± 0.044
A0A087WYS9|Q15526 and related entries (UniProt Q15526)	1.01 ± 0.078	1.01 ± 0.07
A0A0A0MSY7|E5KNQ5 and related entries (UniProt O00142)	1.14 ± 0.058	0.992 ± 0.11
A0A087X1Z1|A0A0G2JPW5|A0A0G2JQX1|A0A0G2JSA7|Q96RT8 and related entries (UniProt Q96RT8)	0.953 ± 0.014	0.963 ± 0.12
A0A075B6T1|Q9C0C7 and related entries (UniProt Q9C0C7)	0.94 ± 0.12	0.87 ± 0.076
A0A087X1S7|P09326 (UniProt P09326)	0.929 ± 0.029	0.937 ± 0.074
A0A087WU31|A0A0A0MTB7|P51790 and related entries (UniProt P51790)	0.962 ± 0.076	0.983 ± 0.027
A0A087WVF7|F8W719 and related entries (UniProt Q9NZM3)	1.01 ± 0.0045	1.01 ± 0.065
A0A087WT12|A0A087X2I2|K7ERP4 and related entries (UniProt P36969)	0.984 ± 0.027	0.98 ± 0.017
A0A087WV81|I3L295 and related entries (UniProt Q9H3L2+O75352+Q1HDL3+J3QS48+I3L1D2+J3QW43+J3QRD5+J3KT75+I3L295)	0.983 ± 0.062	0.949 ± 0.031
A0A096LPC5|A0A0A0MR88|Q9Y4E1-4|Q9Y4E1-6 (UniProt Q9Y4E1)	0.99 ± 0.059	0.971 ± 0.082
A0A0A6YYL2|P0DMM9 and related entries (UniProt P0DMN0+P0DMM9)	1.06 ± 0.075	0.998 ± 0.038
A0A0C4DGX2|E7ESL0 and related entries (UniProt Q9NWU5)	0.99 ± 0.11	1.06 ± 0.093
A0A087WUD1 (UniProt Q6DD87)	1.039 ± 0.0046	1.02 ± 0.022
A0A0A6YY95|Q9Y240 (UniProt Q9Y240)	0.98 ± 0.034	0.9447 ± 0.0062
A0A0D9SFE4|A0A0D9SFB1|A0A0U1RQP1|Q05193 and related entries (UniProt Q05193)	1.02 ± 0.044	1.04 ± 0.02
A0A087WZN1|O43837 (UniProt O43837)	1.02 ± 0.09	1.04 ± 0.043
A0A0C4DGT6|Q96AP0 and related entries (UniProt Q96AP0)	1.02 ± 0.13	1.06 ± 0.093
A0A087WUH0|P28715 (UniProt P28715)	1.01 ± 0.03	1 ± 0.059
